Literature values in patent publication US20130251783A1, “LIPOSOMES CONTAINING PERMEATION ENHANCERS FOR ORAL DRUG DELIVERY” (Universitat Heidelberg, priority 2011, published 2013).

Legend:
[1] = test system: two different corneal cell lines; conditions: 1-h incubation; cited from earlier work
[2] = test system: fibroblast cell line; conditions: after 30 min, two different assays; cited from earlier work
[3] = test system: erythrocytes and nasal mucosa; conditions: cited from earlier work

CCCCCCCCCCCCCCCC[n+]1ccccc1 [CpCl, cetylpyridinium chloride]
Concentration giving a decrease in the cell viability of 50% [1]: around 10 μM | Concentration leading to 50% survival [2]: around 0.19 mM | Cytotoxicity (haemolytical activity, protein leaching) [3]: comparable to that of the anionic surfactant sodium dodecyl sulphate
